Reference: patent US5776903A, “Peptide derivatives usable as zinc endopeptidase 24-15 inhibitors” (Commissariat A l'Energie Atomique, priority 1995, dated 1998)
Some results were stated once for a whole list of compounds, not compound by compound.

Amino acid sequences for entries named in this document (tags omitted).
UniProt P24155, whole entry: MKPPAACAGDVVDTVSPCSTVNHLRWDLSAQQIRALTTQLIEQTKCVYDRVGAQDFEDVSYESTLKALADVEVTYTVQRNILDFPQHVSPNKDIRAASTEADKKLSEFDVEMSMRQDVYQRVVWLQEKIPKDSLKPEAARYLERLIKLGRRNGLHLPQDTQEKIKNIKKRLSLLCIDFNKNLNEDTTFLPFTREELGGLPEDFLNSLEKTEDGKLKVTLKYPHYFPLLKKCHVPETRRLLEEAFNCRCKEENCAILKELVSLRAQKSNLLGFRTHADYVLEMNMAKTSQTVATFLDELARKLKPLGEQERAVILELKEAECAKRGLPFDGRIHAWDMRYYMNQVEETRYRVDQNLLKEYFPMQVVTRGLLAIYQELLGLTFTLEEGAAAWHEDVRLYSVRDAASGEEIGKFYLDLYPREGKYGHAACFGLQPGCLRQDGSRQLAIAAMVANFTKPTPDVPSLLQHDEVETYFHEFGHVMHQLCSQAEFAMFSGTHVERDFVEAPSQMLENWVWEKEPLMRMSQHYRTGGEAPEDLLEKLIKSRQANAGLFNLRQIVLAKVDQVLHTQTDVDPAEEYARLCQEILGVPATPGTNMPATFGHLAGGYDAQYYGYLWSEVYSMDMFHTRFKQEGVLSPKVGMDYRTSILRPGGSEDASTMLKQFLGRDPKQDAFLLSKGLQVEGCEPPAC

Target: endopeptidase 24-15 (Rattus norvegicus, UniProt P24155)
Assay: Inhibition of neurotensin degradation by purified endopeptidase 24-15 (HPLC), inhibition constant Ki

| SMILES | inhibiting effect with respect to endopeptidase 24-15 (in words) |
| --- | --- |
| CSCC[C@H](NC(=O)[C@H](CCCNC(=N)N)NC(=O)CCP(=O)(O)C(Cc1ccccc1)NC(=O)OCc1ccccc1)C(=O)O (mixture of isomers) [compound 1, Z--Phe .PSI. (PO2 CH2)Gly--Arg--Met] | more effective inhibitors than the known inhibitor Cpp-Ala Pro-Phe-pAb |
| CCCC[C@H](NC(=O)[C@H](CCCNC(=N)N)NC(=O)CCP(=O)(O)C(Cc1ccccc1)NC(=O)OCc1ccccc1)C(=O)O (mixture of isomers) [compound 2, Z--Phe .PSI. (PO2 CH2)Gly--Arg--Nle] | more effective inhibitors than the known inhibitor Cpp-Ala Pro-Phe-pAb |
| C[C@H](NC(=O)[C@H](CCCNC(=N)N)NC(=O)CCP(=O)(O)C(Cc1ccccc1)NC(=O)OCc1ccccc1)C(=O)O (mixture of isomers) [compound 3, Z--Phe .PSI. (PO2 CH2)Gly--Arg--Ala] | more effective inhibitors than the known inhibitor Cpp-Ala Pro-Phe-pAb |
| N=C(N)NCCC[C@H](NC(=O)CCP(=O)(O)C(Cc1ccccc1)NC(=O)OCc1ccccc1)C(=O)N[C@@H](Cc1ccccc1)C(=O)O (mixture of isomers) [compound 4, Z--Phe .PSI. (PO2 CH2)Gly--Arg--Phe] | more effective inhibitors than the known inhibitor Cpp-Ala Pro-Phe-pAb |
| N=C(N)NCCC[C@H](NC(=O)CCP(=O)(O)C(Cc1ccccc1)NC(=O)OCc1ccccc1)C(=O)N[C@@H](Cc1ccc(O)cc1)C(=O)O (mixture of isomers) [compound 5, Z--Phe .PSI. (PO2 CH2)Gly--Arg--Tyr] | more effective inhibitors than the known inhibitor Cpp-Ala Pro-Phe-pAb |
| CC(C)C[C@H](NC(=O)[C@H](CCCNC(=N)N)NC(=O)CCP(=O)(O)C(Cc1ccccc1)NC(=O)OCc1ccccc1)C(=O)O (mixture of isomers) [compound 6, Z--Phe .PSI. (PO2 CH2)Gly--Arg--Leu] | more effective inhibitors than the known inhibitor Cpp-Ala Pro-Phe-pAb |
| N=C(N)NCCC[C@H](NC(=O)CCP(=O)(O)C(Cc1ccccc1)NC(=O)OCc1ccccc1)C(=O)N[C@@H](CCC(N)=O)C(=O)O (mixture of isomers) [compound 7, Z--Phe .PSI. (PO2 CH2)Gly--Arg--Gln] | more effective inhibitors than the known inhibitor Cpp-Ala Pro-Phe-pAb |
| CSCC[C@H](NC(=O)[C@H](CCCCN)NC(=O)C(C)CP(=O)(O)C(Cc1ccccc1)NC(=O)OCc1ccccc1)C(=O)O (mixture of isomers) [compound 22, Z--Phe .PSI. (PO2 CH2)Ala--Lys--Met] | very powerful endopeptidase 24-15 inhibitors |
| CCCC[C@H](NC(=O)[C@H](CCCCN)NC(=O)C(C)CP(=O)(O)C(Cc1ccccc1)NC(=O)OCc1ccccc1)C(=O)O (mixture of isomers) [compound 23, Z--Phe .PSI. (PO2 CH2)Ala--Lys--Nle] | very powerful endopeptidase 24-15 inhibitors |
| CC(CP(=O)(O)C(Cc1ccccc1)NC(=O)OCc1ccccc1)C(=O)N[C@@H](CCCCN)C(=O)N[C@@H](C)C(=O)O (mixture of isomers) [compound 24, Z--Phe .PSI. (PO2 CH2)Ala--Lys--Ala] | very powerful endopeptidase 24-15 inhibitors |
| CC(CP(=O)(O)C(Cc1ccccc1)NC(=O)OCc1ccccc1)C(=O)N[C@@H](CCCCN)C(=O)N[C@@H](Cc1ccccc1)C(=O)O (mixture of isomers) [compound 25, Z--Phe .PSI. (PO2 CH2)Ala--Lys--Phe] | very powerful endopeptidase 24-15 inhibitors |
| CC(C)C[C@H](NC(=O)[C@H](CCCCN)NC(=O)C(C)CP(=O)(O)C(Cc1ccccc1)NC(=O)OCc1ccccc1)C(=O)O (mixture of isomers) [compound 26, Z--Phe .PSI. (PO2 CH2)Ala--Lys--Leu] | very powerful endopeptidase 24-15 inhibitors |
| CC[C@H](C)[C@H](NC(=O)[C@H](CCCCN)NC(=O)C(C)CP(=O)(O)C(Cc1ccccc1)NC(=O)OCc1ccccc1)C(=O)O (mixture of isomers) [compound 27, Z--Phe .PSI. (PO2 CH2)Ala--Lys--Ile] | very powerful endopeptidase 24-15 inhibitors |
| CC(CP(=O)(O)C(Cc1ccccc1)NC(=O)OCc1ccccc1)C(=O)N[C@@H](CCCCN)C(=O)N[C@@H](CCC(N)=O)C(=O)O (mixture of isomers) [compound 28, Z--Phe .PSI. (PO2 CH2)Ala--Lys--Gln] | very powerful endopeptidase 24-15 inhibitors |
| CC(CP(=O)(O)C(Cc1ccccc1)NC(=O)OCc1ccccc1)C(=O)N[C@@H](CCCCN)C(=O)N[C@@H](Cc1ccc(O)cc1)C(=O)O (mixture of isomers) [compound 29, Z--Phe .PSI. (PO2 CH2)Ala--Lys--Tyr] | very powerful endopeptidase 24-15 inhibitors |
| CC(CP(=O)(O)C(Cc1ccccc1)NC(=O)OCc1ccccc1)C(=O)N[C@@H](CCCCN)C(=O)N[C@H](C(=O)O)C(C)C (mixture of isomers) [compound 30, Z--Phe .PSI. (PO2 CH2)Ala--Lys--Val] | very powerful endopeptidase 24-15 inhibitors |
| CC(CP(=O)(O)C(Cc1ccccc1)NC(=O)OCc1ccccc1)C(=O)N[C@@H](CCCCN)C(=O)N[C@@H](CCCNC(=N)N)C(=O)O (mixture of isomers) [compound 31, Z--Phe .PSI. (PO2 CH2)Ala--Lys--Arg] | very powerful endopeptidase 24-15 inhibitors |
| CC(CP(=O)(O)C(Cc1ccccc1)NC(=O)OCc1ccccc1)C(=O)N[C@@H](CCCCN)C(=O)N[C@@H](CC(N)=O)C(=O)O (mixture of isomers) [compound 32, Z--Phe .PSI. (PO2 CH2)Ala--Lys--Asn] | very powerful endopeptidase 24-15 inhibitors |
| CC(CP(=O)(O)C(Cc1ccccc1)NC(=O)OCc1ccccc1)C(=O)N[C@@H](CCCCN)C(=O)NCC(=O)O (mixture of isomers) [compound 33, Z--Phe .PSI. (PO2 CH2)Ala--Lys--Gly] | very powerful endopeptidase 24-15 inhibitors |
| CC(CP(=O)(O)C(Cc1ccccc1)NC(=O)OCc1ccccc1)C(=O)N[C@@H](CCCCN)C(=O)N[C@@H](Cc1c[nH]c2ccccc12)C(=O)O (mixture of isomers) [compound 34, Z--Phe .PSI. (PO2 CH2)Ala--Lys--Trp] | very powerful endopeptidase 24-15 inhibitors |
